This note sets out measurements from paper doi:10.1101/2022.06.10.495700.

The target of the assay is T1, YFP:RAB-A5c (Arabidopsis thaliana) (UniProt P28187).
T1 sequence: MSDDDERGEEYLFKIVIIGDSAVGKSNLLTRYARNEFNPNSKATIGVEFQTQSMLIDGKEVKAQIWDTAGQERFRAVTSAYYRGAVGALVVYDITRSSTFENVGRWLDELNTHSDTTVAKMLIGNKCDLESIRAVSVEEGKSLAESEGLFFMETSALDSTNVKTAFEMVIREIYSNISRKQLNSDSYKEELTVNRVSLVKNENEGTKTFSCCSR
The assay is described as follows: affinity purification with mass spectrometry.

These are yes or no findings as the source states them, for the method shown. Binding seen in cells or lysates may run through a third protein. Here binding means that the protein was enriched with, or labelled near, the bait; the list need not be complete. Sequences can lack the tags named with a protein.

B1: RECEPTOR-LIKE PROTEIN 4 (receptor, UniProt F4HWL3 23-626)
chain: RPAPYALRISCGARKNVRTPPTYALWFKDIAYTGGVPANATTPTYITPPLKTLRYFPISEGPNNCYNIVRVPKGHYSVRIFFGLVDQPSFDKEPLFDISIEGTQISSLKSGWSSQDDQVFAEALIFLLGGTATICFHSTGHGDPAILSIEILQVDDKAYSFGEGWGQGVILRTATRLTCGTGKSRFDEDYRGDHWGGDRFWNRMRSFGKSADSPRSTEETIKKASVSPNFYPEGLYQSALVSTDDQPDLTYSLDVEPNRNYSVWLHFAEIDNTITAEGKRVFDVVINGDTFFEDVDIIKMSGGRYAALVLNATVTVSGRTLTVVLQPKAGGHAIINAIEVFEIITAEFKTLRDEVSALQKMKKALGLPSRFGWNGDPCVPPQHPWSGANCQLDKNTSRWFIDGLDLDNQGLKGFLPNDISKLKHLQSINLSENNIRGGIPASLGSVTSLEVLDLSYNSFNGSIPETLGELTSLRILNLNGNSLSGKVPAAVGGRLLHRASFNFTDNAGLCGIPGLPACGPHLSSGAKIGIAFGVSLAFLLIVACAMIWWKRRQNILRAQQIAARGAPYAKKRTHVSHDIQMSRHGHNNHGQARTAVENGPSLLS
As to B1, the binding entry is “binds”.
